Results deposited as PubChem BioAssay AID686943 (Drosophila RNAi Screening Center, 2013)

- Screen: 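Knockdowns that increase or decrease active ERK after insulin receptor stimulation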 (primary screen)
- System: Drosophila S2R+ haemocyte-like cells expressing YFP-tagged ERK (Rolled)
- Knock-down reagent: long dsRNA against Drosophila genes
- Conditions: insulin stimulation versus unstimulated cells; dose and duration not given
- Read-out: 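Antibody staining for doubly phosphorylated ERK divided by ERK-YFP signal, as plate z-scores, in insulin-treated and untreated cells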
- Direction: replicate 1, z-score of dpERK with insulin and replicate 2, z-score of dpERK with insulin: higher = more active ERK per ERK-YFP after insulin; replicate 1, z-score of dpERK under basal conditions: higher = more basal active ERK per ERK-YFP; replicate 1, z-score of ERK-YFP with insulin: higher = more YFP-tagged ERK signal
The deposit covers about 23,000 reagents; below is an unselected part of those that have a named target and a result. 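Extra replicates exist only for a retested subset of genes; insulin dose and duration not given; both raised and lowered dpERK matter.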 A plus sign joins genes that one reagent is predicted to hit. Reagent sequences are not shown. Not stated in the record: the amount of reagent, the time to read-out.

Gene	amplicon	replicate 1, z-score of dpERK with insulin	replicate 2, z-score of dpERK with insulin	replicate 1, z-score of dpERK under basal conditions	replicate 1, z-score of ERK-YFP with insulin
CG32102	DRSC22015	0.28	-0.38	0.06	-0.71
Samtor	DRSC04390	-0.86	0.03	0.75	1.21
hth	DRSC16967	0.39	0.07	0.4	-0.56
Npc2e	DRSC15522	0.97	-0.22	0.72	-0.34
Npc2e	DRSC22338	0.24	0.68	1.36	0.47
Or82a	DRSC11996	-0.34	-0.04	0.32	0.77
Crag	DRSC18454	0.71	0.33	-0.45	0.2
CG15399	DRSC00413	-0.9	-0.34	-0.53	2.03
CG14480	DRSC06452	0.44	0.07	0.17	0.09
THADA	DRSC19675	0.35	0.01	0.08	0.08
Ilp4	DRSC10701	0.74	1.62	0.24	0.28
DCAF12	DRSC15475	-0.78	-0.59	-1.08	-0.28
HDAC3	DRSC12352	-0.4	0.53	1.04	0.29
CG31473	DRSC15443	0.35	-0.16	0.54	0.31
Prosalpha1R + Prosalpha1	DRSC07515	-2.09	-3.65	-2.49	0.13
Df31	DRSC03738	0.69	0.29	1.67	-0.42
Df31	DRSC22163	0.71	0.08	0.31	-0.62
CG13359	DRSC18539	0.51	-0.16	-0.53	0.08
CG14881	DRSC15005	0.2	0.5	-1.18	-0.89

Continued, starting with the last 5 of the part before.
Gene	amplicon	replicate 1, z-score of dpERK with insulin	replicate 2, z-score of dpERK with insulin	replicate 1, z-score of dpERK under basal conditions	replicate 1, z-score of ERK-YFP with insulin
Prosalpha1R + Prosalpha1	DRSC07515	-2.09	-3.65	-2.49	0.13
Df31	DRSC03738	0.69	0.29	1.67	-0.42
Df31	DRSC22163	0.71	0.08	0.31	-0.62
CG13359	DRSC18539	0.51	-0.16	-0.53	0.08
CG14881	DRSC15005	0.2	0.5	-1.18	-0.89
CG6738	DRSC16104	-0.56	-0.59	0.22	0.16
CG14624	DRSC18634	1.87	-0.33	0.53	-1.3
CG17290	DRSC06662	-0.08	0.5	0.2	0.21
CG34289	DRSC13625	0.31	0.25	-0.02	1.06
FarO	DRSC18475	0.91	0	-0.12	-0.15
Tfb4	DRSC00675	-0.25	-1.71	0.74	0.96
MED27	DRSC12205	0.68	-0.16	-1.29	-0.44
ssp7	DRSC18878	0.85	0.36	-0.04	0.58
CG34347	DRSC14047	-0.11	0.86	0.09	0.52
CG34347	DRSC14305	1.27	-0.18	-0.02	-0.5
CG34347	DRSC15104	-0.59	-0.95	-1.65	2.31
CG34347	DRSC15105	-1.35	-6.95	-2.53	-8.27
CG33234	DRSC07994	-0.08	-0.04	1.96	0
S-Lap3	DRSC10956	0.52	0.55	-0.04	-0.73
Cp18	DRSC11120	0.09	-0.33		0.57
Cyp4ac1	DRSC03302	0.8	-0.11	-0.52	1.7
Nepl5	DRSC03241	-0.48	-0.91	-0.2	1.01
CG16756	DRSC18115	-1.72	-1.13	-0.17	0.1
CG10395	DRSC04840	-0.68	-0.3	0.12	2.06
CG11400	DRSC06070	0.15	0.11	-0.18	-0.12
lov	DRSC04665	0.53	0.71	0.84	0.34
Or67a	DRSC11240	0.59	0.39	-0.18	0.67
Ih	DRSC05477	-0.4	0.01	0.86	0.34
Ih	DRSC07445	-0.06	-0.33	0.18	0.36
Ih	DRSC22956	-2.79	0.74	0.53	0.83
SpdS	DRSC16408	0.3	0.22	-0.62	0.49
Dmtn	DRSC12513	0.19	-0.23	-0.35	0.36
SLIRP2	DRSC16363	-0.03	-0.46	-0.07	-0.28
Trs31	DRSC05975	0.68	0.3	0.56	0.75
CG2127	DRSC06821	0.28	0.62	-0.03	0.53
Cul2	DRSC03710	-0.02	-0.68	-0.45	0.34
CG9095	DRSC20150	0.5	0.71	0.89	0.16
CG13766	DRSC02271	0.34	0.13	0.63	-0.26
AANATL5	DRSC05994	0.56	1.05	0.58	0.06
Gr93c	DRSC14587	0.49	0.34	0.02	-0.2
CG30116	DRSC05935	0.16	-0.14	0.69	0.07
CG30116	DRSC06685	0.29	-0.01	0.23	0.57
CG30022	DRSC22405	0.87	-0.2	-0.68	-0.26
